The results in this text go back to patent publication US8629241B2 (The University of Queensland, priority 2004, dated 2014).

For part of these data: Strings that start with PEPTIDE1 are HELM notation: dots part the residues, brackets hold end groups and non-standard residues.

Data set [1] can be described thus: general procedure: Fmoc solid-phase peptide synthesis; Rink Amide MBHA; HBTU/DIPEA; BOP/DIPEA for cyclisation and fragment coupling. Particulars: whole synthesis.
Data set [2] is described as follows: general procedure: Fmoc solid-phase peptide synthesis; trityl chloride resin; HBTU/DIPEA; BOP/DIPEA for cyclisation and fragment coupling. Particulars: whole synthesis, scale 1.16 mmol.
Data set [3] in a line: general procedure: Fmoc solid-phase peptide synthesis; Rink Amide MBHA resin; trityl chloride resin; HBTU/DIPEA; BOP/DIPEA for cyclisation and fragment coupling.

Regarding “NH2-(cyclo-1-5)-KARAD-NH2 (C-amide, cyclized 1-5)”, the isolated yield entry in data set [1] (scale 1.56 mmol) is on record as “Yield 30% (isolated)”. Take “PEPTIDE1{[ac].K.A.R.A.D.K.A.R.A.D.[am]}$$$$V2.0”: the isolated yield entry in data set [1] is reported as “Yield 20% (isolated)”.

For Boc-(cyclo-1-5)-KAR(Pbf)AD-OH, the crude yield result in data set [2] is listed as “Yield 50%”. Turning to “cyclo(1-5, 6-10, 11-15)-Ac-[KARADKARADKARAD]-NH2. (N-acetyl, C-amide, three lactam cyclizations)”, the step yield in data set [3] is on record as 5.5% (isolated). With “Ac(KARAD)n-NH2 where n=3 (KARADKARADKARAD; N-acetyl, C-amide)”, the isolated yield entry in data set [1] is given as “Yield 30% (isolated)”. For the substance “PEPTIDE1{[ac].K.A.R.A.D.K.A.R.A.D.[am]}$PEPTIDE1,PEPTIDE1,2:R3-6:R3|PEPTIDE1,PEPTIDE1,7:R3-11:R3$$$V2.0”, in data set [3], the step yield was determined as 10% isolated.
